From the supplement of paper PMC10849652
Some of the results follow.

The chains behind the UniProt entries cited, without tags or fusion partners. Where a name states a change or a piece, a line headed by the entry shows the natural chain unless it says otherwise.
UniProt P52294, whole entry, looked up: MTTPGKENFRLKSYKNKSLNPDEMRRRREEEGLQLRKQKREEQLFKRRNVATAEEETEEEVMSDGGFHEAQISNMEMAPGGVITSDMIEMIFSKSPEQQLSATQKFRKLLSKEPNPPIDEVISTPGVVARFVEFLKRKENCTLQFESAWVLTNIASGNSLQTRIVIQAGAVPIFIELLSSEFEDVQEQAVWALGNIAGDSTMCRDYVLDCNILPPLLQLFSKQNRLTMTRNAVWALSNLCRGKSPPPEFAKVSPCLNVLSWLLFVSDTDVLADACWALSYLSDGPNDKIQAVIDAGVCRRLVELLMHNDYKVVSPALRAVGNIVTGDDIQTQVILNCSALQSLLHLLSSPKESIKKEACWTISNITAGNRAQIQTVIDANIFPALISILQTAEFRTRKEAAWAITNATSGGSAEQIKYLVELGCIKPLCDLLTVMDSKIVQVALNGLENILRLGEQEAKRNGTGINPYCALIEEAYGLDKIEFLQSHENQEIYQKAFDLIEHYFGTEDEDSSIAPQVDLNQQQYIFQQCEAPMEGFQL
UniProt Q9BQ90: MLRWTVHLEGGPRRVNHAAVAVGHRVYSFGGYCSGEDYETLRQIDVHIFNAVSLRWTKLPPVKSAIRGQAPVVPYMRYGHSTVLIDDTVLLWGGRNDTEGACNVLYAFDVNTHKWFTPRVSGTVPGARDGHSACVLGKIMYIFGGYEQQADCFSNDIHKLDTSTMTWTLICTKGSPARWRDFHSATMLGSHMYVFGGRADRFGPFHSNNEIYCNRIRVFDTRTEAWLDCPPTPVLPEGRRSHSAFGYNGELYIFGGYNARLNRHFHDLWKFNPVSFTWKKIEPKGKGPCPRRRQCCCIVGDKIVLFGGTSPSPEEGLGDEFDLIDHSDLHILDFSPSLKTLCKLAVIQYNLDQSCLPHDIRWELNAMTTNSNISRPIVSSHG
UniProt Q12840: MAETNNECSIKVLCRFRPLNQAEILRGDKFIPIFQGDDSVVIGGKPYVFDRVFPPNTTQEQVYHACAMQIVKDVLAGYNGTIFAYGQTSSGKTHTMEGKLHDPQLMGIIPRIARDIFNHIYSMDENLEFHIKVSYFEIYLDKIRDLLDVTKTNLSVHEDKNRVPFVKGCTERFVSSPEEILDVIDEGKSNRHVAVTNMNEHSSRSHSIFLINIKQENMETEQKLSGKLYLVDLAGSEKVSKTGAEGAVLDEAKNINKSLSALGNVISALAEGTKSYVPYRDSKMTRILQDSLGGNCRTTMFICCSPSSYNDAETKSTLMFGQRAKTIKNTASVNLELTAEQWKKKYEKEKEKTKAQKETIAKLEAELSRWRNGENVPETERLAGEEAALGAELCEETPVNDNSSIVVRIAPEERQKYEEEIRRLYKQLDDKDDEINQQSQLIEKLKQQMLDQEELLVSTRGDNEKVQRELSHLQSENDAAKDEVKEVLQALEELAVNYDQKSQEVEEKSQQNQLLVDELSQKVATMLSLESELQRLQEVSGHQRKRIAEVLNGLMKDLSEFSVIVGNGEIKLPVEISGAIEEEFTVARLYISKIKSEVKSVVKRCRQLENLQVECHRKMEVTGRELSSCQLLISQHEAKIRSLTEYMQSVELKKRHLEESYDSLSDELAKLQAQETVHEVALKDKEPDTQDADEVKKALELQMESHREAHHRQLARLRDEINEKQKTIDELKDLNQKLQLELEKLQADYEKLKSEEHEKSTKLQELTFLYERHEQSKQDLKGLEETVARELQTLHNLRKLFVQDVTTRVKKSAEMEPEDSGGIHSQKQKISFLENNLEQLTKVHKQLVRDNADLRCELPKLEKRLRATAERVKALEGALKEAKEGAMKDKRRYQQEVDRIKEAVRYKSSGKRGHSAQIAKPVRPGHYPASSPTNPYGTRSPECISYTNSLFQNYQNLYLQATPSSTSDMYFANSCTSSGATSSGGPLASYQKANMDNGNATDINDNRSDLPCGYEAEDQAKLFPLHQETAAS
UniProt A6NCN2: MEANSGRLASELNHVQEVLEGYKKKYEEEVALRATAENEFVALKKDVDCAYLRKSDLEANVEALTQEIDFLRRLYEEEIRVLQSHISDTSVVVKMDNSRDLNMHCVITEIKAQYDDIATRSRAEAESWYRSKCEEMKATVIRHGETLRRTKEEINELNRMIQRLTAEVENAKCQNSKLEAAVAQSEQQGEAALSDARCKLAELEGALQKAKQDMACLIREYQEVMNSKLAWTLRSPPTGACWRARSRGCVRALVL
UniProt P50053: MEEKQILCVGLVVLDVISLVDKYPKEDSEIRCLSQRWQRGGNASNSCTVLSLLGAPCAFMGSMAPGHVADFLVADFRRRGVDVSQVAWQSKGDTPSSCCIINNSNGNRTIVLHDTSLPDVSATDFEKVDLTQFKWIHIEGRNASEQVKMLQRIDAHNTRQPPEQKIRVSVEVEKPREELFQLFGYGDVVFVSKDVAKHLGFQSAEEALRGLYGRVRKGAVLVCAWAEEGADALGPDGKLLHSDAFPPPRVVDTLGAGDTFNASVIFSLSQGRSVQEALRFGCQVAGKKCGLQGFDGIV
UniProt O94889: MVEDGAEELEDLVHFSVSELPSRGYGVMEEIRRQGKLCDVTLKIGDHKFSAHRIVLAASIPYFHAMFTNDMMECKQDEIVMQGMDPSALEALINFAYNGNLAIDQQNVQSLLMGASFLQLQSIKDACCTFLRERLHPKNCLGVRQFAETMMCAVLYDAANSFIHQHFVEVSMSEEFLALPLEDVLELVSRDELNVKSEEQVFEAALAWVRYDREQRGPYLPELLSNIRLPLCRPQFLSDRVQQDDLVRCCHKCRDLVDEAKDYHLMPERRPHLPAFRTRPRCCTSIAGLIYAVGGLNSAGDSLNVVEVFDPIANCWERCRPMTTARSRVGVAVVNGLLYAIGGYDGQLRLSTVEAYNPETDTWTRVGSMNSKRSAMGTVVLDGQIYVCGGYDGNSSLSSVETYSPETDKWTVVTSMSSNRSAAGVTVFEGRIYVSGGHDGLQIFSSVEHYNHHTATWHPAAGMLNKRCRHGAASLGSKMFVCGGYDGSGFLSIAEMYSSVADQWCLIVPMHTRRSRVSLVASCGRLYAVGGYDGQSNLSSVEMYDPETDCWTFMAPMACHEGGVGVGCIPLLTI
UniProt Q9UK76: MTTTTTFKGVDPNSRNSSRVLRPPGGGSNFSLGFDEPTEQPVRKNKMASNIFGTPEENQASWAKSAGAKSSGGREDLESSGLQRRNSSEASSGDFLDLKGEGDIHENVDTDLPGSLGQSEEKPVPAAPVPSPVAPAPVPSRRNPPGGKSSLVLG
UniProt Q9H7Z6: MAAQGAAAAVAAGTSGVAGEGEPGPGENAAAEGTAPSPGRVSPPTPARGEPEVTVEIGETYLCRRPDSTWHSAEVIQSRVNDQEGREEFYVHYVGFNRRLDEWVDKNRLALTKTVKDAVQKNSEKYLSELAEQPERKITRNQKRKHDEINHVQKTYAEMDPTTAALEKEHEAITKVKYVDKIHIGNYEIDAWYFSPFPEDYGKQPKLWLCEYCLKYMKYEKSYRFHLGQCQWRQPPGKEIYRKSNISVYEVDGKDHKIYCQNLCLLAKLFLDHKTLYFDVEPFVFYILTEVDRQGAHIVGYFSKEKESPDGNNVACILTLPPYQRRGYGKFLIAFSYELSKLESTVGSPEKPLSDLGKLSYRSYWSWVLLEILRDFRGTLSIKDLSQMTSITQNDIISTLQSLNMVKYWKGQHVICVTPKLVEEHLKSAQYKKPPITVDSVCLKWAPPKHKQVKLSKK
UniProt Q9NVR0: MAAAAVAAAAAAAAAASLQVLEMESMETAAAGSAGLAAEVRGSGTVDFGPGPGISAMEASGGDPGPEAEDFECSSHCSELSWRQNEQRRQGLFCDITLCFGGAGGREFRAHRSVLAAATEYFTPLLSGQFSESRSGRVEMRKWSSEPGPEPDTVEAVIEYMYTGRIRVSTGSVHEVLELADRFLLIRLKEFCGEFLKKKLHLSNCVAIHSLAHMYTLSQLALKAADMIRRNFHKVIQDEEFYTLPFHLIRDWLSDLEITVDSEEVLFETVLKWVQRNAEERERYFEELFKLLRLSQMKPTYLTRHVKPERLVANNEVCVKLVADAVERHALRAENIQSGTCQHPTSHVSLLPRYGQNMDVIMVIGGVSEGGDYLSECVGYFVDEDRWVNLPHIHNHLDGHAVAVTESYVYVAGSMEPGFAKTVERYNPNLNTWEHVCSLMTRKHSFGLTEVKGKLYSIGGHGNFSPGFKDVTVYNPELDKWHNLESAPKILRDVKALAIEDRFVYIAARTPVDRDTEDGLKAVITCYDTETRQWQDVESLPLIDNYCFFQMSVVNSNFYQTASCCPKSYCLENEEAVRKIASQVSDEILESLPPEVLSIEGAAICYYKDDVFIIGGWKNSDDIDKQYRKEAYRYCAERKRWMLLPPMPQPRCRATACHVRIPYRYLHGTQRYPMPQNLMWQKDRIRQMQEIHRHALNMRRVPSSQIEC
UniProt P52732: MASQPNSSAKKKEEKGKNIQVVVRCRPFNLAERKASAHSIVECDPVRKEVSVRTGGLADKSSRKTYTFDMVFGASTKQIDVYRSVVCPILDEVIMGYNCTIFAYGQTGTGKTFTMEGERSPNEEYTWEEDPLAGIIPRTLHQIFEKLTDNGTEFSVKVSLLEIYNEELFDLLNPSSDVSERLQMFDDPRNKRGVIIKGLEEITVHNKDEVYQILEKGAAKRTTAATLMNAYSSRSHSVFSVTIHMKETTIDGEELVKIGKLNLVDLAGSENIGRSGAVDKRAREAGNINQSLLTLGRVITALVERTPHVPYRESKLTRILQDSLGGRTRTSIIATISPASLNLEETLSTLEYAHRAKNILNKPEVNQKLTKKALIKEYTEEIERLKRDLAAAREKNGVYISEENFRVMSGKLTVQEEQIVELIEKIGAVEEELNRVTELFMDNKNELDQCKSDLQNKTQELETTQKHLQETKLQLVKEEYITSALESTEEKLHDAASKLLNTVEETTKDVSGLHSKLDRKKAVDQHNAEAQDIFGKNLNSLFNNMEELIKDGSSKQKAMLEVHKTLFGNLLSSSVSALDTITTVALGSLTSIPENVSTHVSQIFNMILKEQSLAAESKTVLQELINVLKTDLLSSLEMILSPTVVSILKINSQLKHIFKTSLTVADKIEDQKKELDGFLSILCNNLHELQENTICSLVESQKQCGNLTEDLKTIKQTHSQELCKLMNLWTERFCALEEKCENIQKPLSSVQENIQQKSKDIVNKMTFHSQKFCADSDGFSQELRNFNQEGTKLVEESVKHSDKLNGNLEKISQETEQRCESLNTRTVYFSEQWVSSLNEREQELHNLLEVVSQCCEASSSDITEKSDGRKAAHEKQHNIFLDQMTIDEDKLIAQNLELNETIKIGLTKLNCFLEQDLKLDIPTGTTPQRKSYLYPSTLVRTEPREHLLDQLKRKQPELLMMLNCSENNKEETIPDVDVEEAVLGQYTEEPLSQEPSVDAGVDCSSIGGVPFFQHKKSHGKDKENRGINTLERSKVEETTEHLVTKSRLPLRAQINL
UniProt Q13303: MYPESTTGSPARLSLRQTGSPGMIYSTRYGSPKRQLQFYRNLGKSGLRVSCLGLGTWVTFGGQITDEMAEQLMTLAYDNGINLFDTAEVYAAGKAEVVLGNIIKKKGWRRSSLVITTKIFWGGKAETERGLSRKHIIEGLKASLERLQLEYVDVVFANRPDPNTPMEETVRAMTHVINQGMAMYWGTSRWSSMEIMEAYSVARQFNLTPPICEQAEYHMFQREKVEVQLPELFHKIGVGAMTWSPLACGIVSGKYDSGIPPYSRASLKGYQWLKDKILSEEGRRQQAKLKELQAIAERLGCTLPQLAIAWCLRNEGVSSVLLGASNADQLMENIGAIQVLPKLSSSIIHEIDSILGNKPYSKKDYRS
UniProt Q9Y496, whole entry, looked up: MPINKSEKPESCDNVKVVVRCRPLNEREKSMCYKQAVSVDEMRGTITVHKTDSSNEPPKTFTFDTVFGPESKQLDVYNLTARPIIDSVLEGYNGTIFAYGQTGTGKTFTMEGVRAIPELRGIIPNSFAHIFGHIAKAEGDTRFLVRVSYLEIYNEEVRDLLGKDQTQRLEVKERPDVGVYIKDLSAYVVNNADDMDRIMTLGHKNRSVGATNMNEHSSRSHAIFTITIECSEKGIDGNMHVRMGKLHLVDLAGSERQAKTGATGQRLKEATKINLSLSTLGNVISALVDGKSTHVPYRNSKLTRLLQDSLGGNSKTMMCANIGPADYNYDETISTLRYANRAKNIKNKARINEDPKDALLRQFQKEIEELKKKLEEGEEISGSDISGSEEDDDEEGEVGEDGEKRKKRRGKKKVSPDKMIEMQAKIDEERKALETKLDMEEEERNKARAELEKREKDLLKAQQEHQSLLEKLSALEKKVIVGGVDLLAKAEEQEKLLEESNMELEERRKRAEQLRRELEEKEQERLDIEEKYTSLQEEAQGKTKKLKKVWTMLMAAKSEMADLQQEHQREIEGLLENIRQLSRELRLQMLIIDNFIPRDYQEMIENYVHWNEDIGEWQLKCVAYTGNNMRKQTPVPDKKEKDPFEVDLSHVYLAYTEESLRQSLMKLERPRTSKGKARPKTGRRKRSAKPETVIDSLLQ

Tests used:
Assay in all cases: log2 fold change, soluble protein after heating vs DMSO (PISA); higher = thermal stabilisation; K562 cells, 10 uM, 30 min; active = over 0.2 and 3.5 SD of the protein, either way, in both replicates (recomputed)
bafetinib = compound: Cc1ccc(NC(=O)c2ccc(CN3CC[C@H](N(C)C)C3)c(C(F)(F)F)c2)cc1Nc1nccc(-c2cncnc2)n1 [bafetinib]
In short: (§1)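 K562 cells at 2×10^6 cells/mL were given 10 μM compound for 30 min. Aliquots then went through 3 min of heating across 48°C-58°C, were pooled, and were extracted in PBS with 0.5% NP-40 at 4°C, and the supernatant after 21,000xg for 90 min was quantified by TMTpro 16plex LC-MS/MS with channel sums equalised. Thermal stability relative to control samples, from duplicates, is given as log2 fold change.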

[1] = compound: Cc1cccc(CC(=O)N2CCc3c2ccc(-c2cn(C)c4ncnc(N)c24)c3F)n1
In short: as §1

nilotinib = compound: Cc1cn(-c2cc(NC(=O)c3ccc(C)c(Nc4nccc(-c5cccnc5)n4)c3)cc(C(F)(F)F)c2)cn1 [nilotinib]
In short: as §1

[2] = compound: Cc1nc(Nc2n[nH]c3c2CN(C(=O)N[C@H](CN(C)C)c2ccccc2)C3(C)C)c2sccc2n1
In short: as §1

dasatinib = compound: Cc1nc(Nc2ncc(C(=O)Nc3c(C)cccc3Cl)s2)cc(N2CCN(CCO)CC2)n1 [dasatinib]
In short: as §1

[3] = compound: Cc1ncc(-c2ccnc(Nc3ccc(S(C)(=O)=O)cc3)n2)n1C(C)C
In short: as §1

[4] = compound: Cn1cc(-c2ccc3c(c2)CCN3C(=O)Cc2cccc(C(F)(F)F)c2)c2c(N)ncnc21
In short: as §1

[5] = compound: Cn1cc(-c2ccc3nnc(C(F)(F)c4ccc5ncccc5c4)n3n2)cn1
In short: as §1

tipifarnib = compound: Cn1cncc1[C@@](N)(c1ccc(Cl)cc1)c1ccc2c(c1)c(-c1cccc(Cl)c1)cc(=O)n2C [tipifarnib]
In short: as §1

mubritinib = compound: FC(F)(F)c1ccc(/C=C/c2nc(COc3ccc(CCCCn4ccnn4)cc3)co2)cc1 [mubritinib]
In short: as §1

Row | Target | log2 fold change (bafetinib) | log2 fold change [1] | log2 fold change (nilotinib) | log2 fold change [2] | log2 fold change (dasatinib) | log2 fold change [3] | log2 fold change [4] | log2 fold change [5] | log2 fold change (tipifarnib) | log2 fold change (mubritinib)
1 | KPNA1 (UniProt P52294) | inactive: 0 | inactive: -0.02 | inactive: -0.103 | inactive: -0.074 | inactive: 0.003 | inactive: 0.047 | inactive: -0.089 | inactive: -0.008 | inactive: -0.088 | inactive: -0.06
2 | KLHDC3 (UniProt Q9BQ90) | inactive: -0.166 | inactive: 0.003 | inactive: 0.029 | inactive: 0.007 | inactive: 0.173 | inactive: -0.008 | inactive: -0.042 | inactive: 0.009 | inactive: 0.04 | 
3 | KIF5A (UniProt Q12840) | inactive: -0.021 | inactive: 0.081 | inactive: -0.013 | inactive: 0.027 | inactive: -0.024 | inactive: 0.033 | inactive: 0.018 | inactive: -0.017 | inactive: -0.005 | inactive: 0.006
4 | KIAA0100 (UniProt Q14667) | inactive: -0.051 | inactive: 0.059 | inactive: 0.025 | inactive: 0.063 | inactive: 0.039 | inactive: -0.066 | inactive: 0.043 | inactive: 0.114 | inactive: -0.066 | inactive: 0.094
5 | KRT87P (UniProt A6NCN2) | inactive: 1.25 |  |  |  |  |  |  |  |  | 
6 | KNTC1 (UniProt P50748) | inactive: -0.013 | inactive: 0.043 | inactive: -0.064 | inactive: -0.026 | inactive: -0.047 | inactive: 0.042 | inactive: -0.073 | inactive: 0 | inactive: -0.108 | inactive: 0.004
7 | KHK isoform 2 (UniProt P50053) | inactive: 0.009 | inactive: -0.009 | inactive: -0.076 | inactive: 0.018 | inactive: 0.071 | inactive: 0.039 | inactive: 0.002 | inactive: -0.06 | inactive: 0.005 | inactive: 0.031
8 | KARS1 (UniProt Q15046) | inactive: 0.004 | inactive: 0.141 | inactive: 0.034 | inactive: 0.032 | inactive: 0.072 | inactive: -0.004 | inactive: -0.135 | inactive: -0.116 | inactive: 0.033 | inactive: -0.057
9 | KLC4 isoform 3 (UniProt Q9NSK0) | inactive: 0.019 | inactive: 0.074 | inactive: 0.025 | inactive: -0.097 | inactive: -0.043 | inactive: 0 | inactive: 0.042 | inactive: -0.015 | inactive: -0.024 | inactive: 0.043
10 | KDM5C (UniProt P41229) | inactive: -0.027 | inactive: 0.058 | inactive: -0.118 | inactive: 0.038 | inactive: -0.119 | inactive: -0.008 | inactive: -0.079 | inactive: 0.051 | inactive: -0.044 | inactive: 0.134
11 | KAZN isoform 3 (UniProt Q674X7) | inactive: 0.01 | inactive: -0.052 | inactive: 0.065 | inactive: 0.06 | inactive: -0.022 | inactive: -0.078 | inactive: -0.005 | inactive: 0.009 | inactive: -0.027 | inactive: 0.091
12 | KLHL18 (UniProt O94889) | inactive: 0.027 | inactive: -0.252 | inactive: 0.005 | inactive: -0.021 | inactive: -0.187 | inactive: 0.025 | inactive: 0.061 | inactive: -0.027 | inactive: 0.044 | inactive: -0.017
13 | KIF2A isoform 4 (UniProt O00139) | inactive: 0.049 | inactive: 0.017 | inactive: -0.08 | inactive: 0.016 | inactive: -0.034 | inactive: -0.008 | inactive: -0.059 | inactive: -0.085 | inactive: 0.013 | inactive: -0.133
14 | IVNS1ABP (UniProt Q9Y6Y0) | inactive: 0.157 | inactive: 0.1 | inactive: -0.079 | inactive: -0.051 | inactive: -0.146 | inactive: -0.003 | inactive: -0.008 | inactive: 0.067 | inactive: -0.051 | inactive: -0.113
15 | KPNA6 (UniProt O60684) | inactive: -0.071 | inactive: 0.078 | inactive: -0.054 | inactive: -0.038 | inactive: -0.067 | inactive: 0.003 | inactive: -0.098 | inactive: -0.015 | inactive: -0.033 | inactive: -0.067
16 | JPT1 (UniProt Q9UK76) | inactive: -0.024 | inactive: -0.051 | inactive: 0.073 | inactive: -0.006 | inactive: 0.039 | inactive: 0.007 | inactive: 0.043 | inactive: -0.006 | inactive: 0.015 | inactive: 0.046
17 | KAT8 isoform 2 (UniProt Q9H7Z6) | inactive: -0.109 | inactive: -0.087 | inactive: -0.053 | inactive: -0.033 | inactive: 0.115 | inactive: -0.007 | inactive: 0.034 | inactive: -0.046 | inactive: -0.028 | inactive: 0.101
18 | KBTBD2 (UniProt Q8IY47) | inactive: -0.003 | inactive: -0.013 | inactive: -0.058 | inactive: 0.009 | inactive: -0.024 | inactive: -0.057 | inactive: 0.074 | inactive: -0.004 | inactive: -0.021 | inactive: 0.082
19 | KLHL11 (UniProt Q9NVR0) | inactive: -0.062 | inactive: -0.003 | inactive: 0.097 | inactive: -0.127 | inactive: -0.193 | inactive: -0.077 | inactive: 0.029 | inactive: -0.143 | inactive: -0.019 | inactive: 0.108
20 | KCTD9 (UniProt Q7L273) | inactive: -0.035 | inactive: -0.04 | inactive: 0.091 | inactive: -0.04 | inactive: -0.032 | inactive: -0.009 | inactive: 0.05 | inactive: 0.023 | inactive: -0.013 | inactive: 0.048
21 | KPNB1 (UniProt Q14974) | inactive: 0.029 | inactive: 0.029 | inactive: -0.129 | inactive: -0.09 | inactive: -0.072 | inactive: -0.018 | inactive: -0.09 | inactive: -0.045 | inactive: -0.12 | inactive: 0.019
22 | KPNA4 (UniProt O00629) | inactive: -0.111 | inactive: 0.021 | inactive: 0.04 | inactive: -0.155 | inactive: -0.017 | inactive: -0.033 | inactive: 0.021 | inactive: 0.032 | inactive: -0.004 | inactive: 0.093
23 | KLC2 (UniProt Q9H0B6) | inactive: 0.013 | inactive: 0.018 | inactive: -0.049 | active: -0.388 | inactive: -0.07 | inactive: 0.025 | inactive: 0.05 | inactive: 0.046 | inactive: 0.031 | inactive: 0.009
24 | KIF23 (UniProt Q02241) | inactive: -0.077 | inactive: 0.013 | inactive: 0.034 | inactive: -0.298 | inactive: -0.058 | inactive: 0.033 | inactive: 0.044 | inactive: -0.089 | inactive: 0.177 | inactive: 0.032
25 | KIF11 (UniProt P52732) | inactive: 0.043 | inactive: 0.044 | inactive: -0.057 | inactive: -0.031 | inactive: -0.075 | inactive: 0.088 | inactive: -0.06 | inactive: -0.002 | inactive: -0.078 | inactive: -0.025
26 | KIF5B (UniProt P33176) | inactive: 0.01 | inactive: 0.005 | inactive: 0.007 | inactive: -0.026 | inactive: -0.054 | inactive: -0.002 | inactive: 0.033 | inactive: -0.025 | inactive: -0.034 | inactive: 0.041
27 | KCNAB2 (UniProt Q13303) | inactive: -0.159 | inactive: -0.047 | inactive: -0.026 | inactive: 0.123 | inactive: -0.025 | inactive: -0.002 | inactive: -0.018 | inactive: -0.002 | inactive: -0.054 | inactive: 0.03
28 | KIF3A (UniProt Q9Y496) | inactive: 0.022 | inactive: -0.047 | inactive: -0.128 | inactive: 0.054 | inactive: -0.068 | inactive: 0.093 | inactive: 0.025 | inactive: -0.043 | inactive: -0.031 | inactive: 0.018
29 | KPNA2 (UniProt P52292) | inactive: 0.127 | inactive: 0.028 | inactive: -0.077 | inactive: -0.103 | inactive: 0.016 | inactive: -0.086 | inactive: -0.238 | inactive: -0.174 | inactive: 0.081 | inactive: -0.125
30 | KIF1B isoform 4 (UniProt O60333) | inactive: -0.056 | inactive: -0.004 | inactive: 0.01 | inactive: 0.073 | inactive: -0.066 | inactive: -0.064 | inactive: -0.044 | inactive: 0.033 | inactive: -0.004 | inactive: -0.004

Part of the list above in another layout:
Row	Target	log2 fold change (bafetinib)	log2 fold change [1]	log2 fold change (nilotinib)	log2 fold change [2]	log2 fold change (dasatinib)	log2 fold change [3]	log2 fold change [4]	log2 fold change [5]	log2 fold change (tipifarnib)	log2 fold change (mubritinib)
24	KIF23 (UniProt Q02241)	inactive: -0.077	inactive: 0.013	inactive: 0.034	inactive: -0.298	inactive: -0.058	inactive: 0.033	inactive: 0.044	inactive: -0.089	inactive: 0.177	inactive: 0.032
25	KIF11 (UniProt P52732)	inactive: 0.043	inactive: 0.044	inactive: -0.057	inactive: -0.031	inactive: -0.075	inactive: 0.088	inactive: -0.06	inactive: -0.002	inactive: -0.078	inactive: -0.025
